The results in this text go back to PMC12631104.

No constants are given. Whether binding was seen depends on the method and setting. Binding seen in cells or lysates may run through a third protein. These calls come from enrichment with a bait or labelling near it, and not all partners need be listed. Sequences can lack the tags named with a protein.

The target in this test is T1, K-Hcy-modified FLAG-HMGB2-TurboID fusion protein (UniProt P26583).
T1 sequence (chain, N-homocysteinylated lysines (K-Hcy), in vitro with HTL; sites not stated): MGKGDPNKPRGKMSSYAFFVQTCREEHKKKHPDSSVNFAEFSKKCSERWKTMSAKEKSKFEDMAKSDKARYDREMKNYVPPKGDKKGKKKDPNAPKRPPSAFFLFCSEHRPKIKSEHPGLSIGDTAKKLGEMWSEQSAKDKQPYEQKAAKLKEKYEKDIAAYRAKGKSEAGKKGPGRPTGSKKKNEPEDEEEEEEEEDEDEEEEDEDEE
The test can be described thus: proximity labelling; HCMEC treated with 0.25 uM purified TurboID-HMGB1/2 (K-Hcy modified or unmodified), 1 mM ATP, 5 mM MgCl2, 500 uM biotin, 1 hour, 37 C; streptavidin magnetic beads; LC-MS/MS; background of TurboID-FLAG alone subtracted; only the target purified.

Consider “Slit Guidance Ligand 2 (SLIT2), endogenous in HCMEC (human (endogenous in HCMEC))”, for which the binding result is listed as “binds”.
